Measurements from patent US20030100094.

Tested on: R.BbvCI (R1+:R2+) (Bacillus brevis)
Test: enzyme reaction in vitro
Conditions: double-strand cleavage; NEBuffer 4 (10 mM Mg), 37 C; purified recombinant protein; only the site is given

## CCTCAGC (double strand) [supercoiled pUB plasmid (two BbvCI sites, one EcoRI site)]
  activity on this sequence: active

Construct, isoform or probe ends are uncertain for at least one entry.
